{"source": "PubChem BioAssay AID1159578 (Peter MacCallum Cancer Centre, 2015)", "screen": "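siRNA pools altering how lymphatic endothelial cells close a scratch wound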 (primary screen)", "cells": "human lymphatic endothelial cells", "knock-down reagent": "siRNA pool against human genes, 40 nM", "timing": "48 h after transfection", "detection": "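High-content imaging of dye-stained cells in a scratch assay measures filled wound area and nuclei per well; duplicate means given as ratio to mock and robust z-score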", "direction": "migration robust z-score: higher = faster migration into the scratch; nuclei per well: higher = more cells in the well", "call rule": "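Pools averaging fewer than 3300 nuclei are never called; remaining pools count as changed when migration robust z lies outside -2 to 2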", "calls": "active = migration changed; inactive = no migration change, or too few cells", "note": "The whole screen tested about 18,000 reagents; this is a part drawn at random. About 1,030 of all reagents (5.7%) were called active. 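Inactive calls also include pools with fewer than 3300 nuclei, whose migration was not assessed.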 Raw values are not corrected between plates. Further read-outs or replicates are left out here. No sequences are given here."}
{"gene": "TMEM42", "migration robust z-score": 0.44, "nuclei per well, duplicate mean": 5795, "outcome": "inactive"}
{"gene": "EEF2K", "migration robust z-score": -1.38, "nuclei per well, duplicate mean": 4547, "outcome": "inactive"}
{"gene": "RFX5", "migration robust z-score": -3.4, "nuclei per well, duplicate mean": 2515, "outcome": "inactive"}
{"gene": "OR7C2", "migration robust z-score": 0.7, "nuclei per well, duplicate mean": 4410, "outcome": "inactive"}
{"gene": "SYT14", "migration robust z-score": -0.6, "nuclei per well, duplicate mean": 4946, "outcome": "inactive"}
{"gene": "TROAP", "migration robust z-score": 0.36, "nuclei per well, duplicate mean": 5538, "outcome": "inactive"}

The list goes on, starting with the last 2 of the part before.
{"gene": "SYT14", "migration robust z-score": -0.6, "nuclei per well, duplicate mean": 4946, "outcome": "inactive"}
{"gene": "TROAP", "migration robust z-score": 0.36, "nuclei per well, duplicate mean": 5538, "outcome": "inactive"}
{"gene": "SPRR2A", "migration robust z-score": 0.3, "nuclei per well, duplicate mean": 6404, "outcome": "inactive"}
{"gene": "SIX6", "migration robust z-score": -0.54, "nuclei per well, duplicate mean": 5020, "outcome": "inactive"}
{"gene": "RNF167", "migration robust z-score": 0.7, "nuclei per well, duplicate mean": 4181, "outcome": "inactive"}
{"gene": "NEK9", "migration robust z-score": -2.08, "nuclei per well, duplicate mean": 2604, "outcome": "inactive"}
{"gene": "RHOV", "migration robust z-score": 0.39, "nuclei per well, duplicate mean": 5933, "outcome": "inactive"}
{"gene": "FSD2", "migration robust z-score": -0.56, "nuclei per well, duplicate mean": 4352, "outcome": "inactive"}
